For 1 compound, tumour growth inhibition results are on record in patent US11052082B2 (priority 2012, dated 2021).

Where a name gives a salt, the structure may show the parent alone.

This assay has as its system ALL-SCID6 xenograft. As to the kind of experiment: Patient-derived ALL-xenograft tumour growth. The class given is in vivo, NOD/SCID/IL2ry null (NSG) mice. Particulars: D,L-methadone orally day 1-76, 20 up to 120 mg/kg/day; doxorubicin 3 mg/kg i.v. day 46, 53, 60, 76. (In general: A xenograft is tissue or cells of one species grown in another, often human tumour cells in immunodeficient mice.)

Take `CCC(=O)C(CC(C)N(C)C)(c1ccccc1)c1ccccc1` (racemic) [D,L-methadone, D,L-methadone hydrochloride]: the tumour growth inhibition result was “significant inhibition of tumour growth”.
